We go through two molecules from US9073931B2, “Liver X receptor modulators” (Vitae Pharmaceuticals, Inc., priority 2012, dated 2015).

Protein sequences, listed by entry. Tags and fused reporters are not part of them. Residues count along the entry.
UniProt P55055, 222-460 limits assumed: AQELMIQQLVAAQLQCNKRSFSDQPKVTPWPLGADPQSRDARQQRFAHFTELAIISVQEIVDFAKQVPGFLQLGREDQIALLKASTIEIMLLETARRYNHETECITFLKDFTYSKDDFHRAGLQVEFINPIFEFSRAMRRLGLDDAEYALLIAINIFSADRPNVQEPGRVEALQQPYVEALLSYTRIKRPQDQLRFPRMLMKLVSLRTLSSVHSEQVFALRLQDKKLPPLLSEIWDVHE

The assay has as its target LXR β LBD protein (Homo sapiens (Human), UniProt P55055). Description: LXR β radioligand binding assay (SPA, [3H]T0901317 competition). The settings on record: read-out: LXRβ BINDING Ki; competition with 15 nM [3H]T0901317, LXRβ LBD.

The match of structure and compound is tentative.

On to `CC(C)[C@H]1c2cc3cc(CO)c(S(C)(=O)=O)cc3n2CCN1c1ncc(C(N)=O)c(C(F)(F)F)n1`, for which the Ki is more than 2500 nM. As to `CC(C)[C@@H]1c2cc3cc(CO)c(S(C)(=O)=O)cc3n2CCN1c1ncc(C(N)=O)c(C(F)(F)F)n1`, the Ki was found to be 50 nM.

By Ki is commonly meant the equilibrium dissociation constant of an inhibitor or competing ligand from its target.
